Source: article doi:10.1101/2025.05.24.653377

Protein sequences, listed by entry. Tags and fused reporters are not part of them. Lines headed by an entry give the natural chain unless they say otherwise; changes in a name come on top.
UniProt P19267: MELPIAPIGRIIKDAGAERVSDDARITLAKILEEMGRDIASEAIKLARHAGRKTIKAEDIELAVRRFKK

What was measured:
HHoB [1] = target: T1, HHoB (UniProt A0A1Q9NRY6); assay: MST; settings: 1 mM MgCl2, value not in text
HHoB [2] = target: T1, HHoB; assay: cryo-EM
HHoB [3] = target: T1, HHoB; assay: EMSA
HHoB mut2 [4] = target: T2, HHoB mut2 (UniProt A0A1Q9NRY6); assay: cryo-EM; settings: 100 mM Mg2+, less ordered hypernucleosomes
HHoB mut1 [5] = target: T3, HHoB mut1 (UniProt A0A1Q9NRY6); assay: cryo-EM; settings: 1 mM MgCl2, open and closed classes, smaller opening
HHoG = assay: EMSA
[6] = target: HMfB (Methanothermus fervidus (M. fervidus)) (UniProt P19267); assay: EMSA; settings: single shifted band
HHoF = assay: EMSA
HHoB mut2 [7] = target: T2, HHoB mut2; assay: EMSA; settings: similar to wild type
HHoB mut1 [8] = target: T3, HHoB mut1; assay: EMSA; settings: similar to wild type
[9] = 10 mM MgCl2, single cooperative shift
[10] = no Mg2+, ladder-like stepwise shifts

Measured: binding result

AGGGTCACATGGGTGTTTGGCACTACCGACAGT (double strand) [33 bp random DNA]
binds: HHoB [1]

ACCAGTTTTATTAGATCAACATATCAAGAAGTTACTAAAATCCGTTAAAAAAATAACAACACCCTGAATTTGACCGTAGTGATTAAGCTCAGTAATGGAATAAAGGAGAAAAAAATTTTGAAATTTAAGAAGAAGATTTATTTTTGAAACAGCGACTACGAAGAAAAAAATTTAAAAGTCAAGCTATTTTATTTGGAAGCAGACAAAGTAACGTCTGTTTCTTTTATTGTTCGACGACCGCTGTTTCGTGCAATTTCTACTGAATATCTGGCTACTTCGAGACCACGCTCTCCTAATAAATCGTTCAGTGCTTTAATTGCACCACTTGATACACGGAAAGCGCCGGCTTCACGGATTAATTTCTCTACTTTTGCAGAAGCGAAAGCTTGTCCTTTAGATCGGCTAGATCTACGTCGACTT (double strand) [HeimC3_31310 420 bp]
binds: HHoB [2]; 100 mM Mg2+, hypernucleosome | HHoB [3]; comparable to Widom601, more shifted bands

CTGGAGAATCCCGGTGCCGAGGCCGCTCAATTGGTCGTAGACAGCTCTAGCACCGCTTAAACGCACGTACGCGCTGTCCCCCGCGTTTTAACCGCCAAGGGGATTACTCCCTAGTCTCCAGGCACGTGTCAGATATATACATCCTGT (double strand) [Widom601 147 bp]
binds: HHoB mut2 [4] | HHoB mut1 [5] | HHoB [2]; 0 Mg2+, open nucleosome, EMD-53390 | HHoB [2]; 1 mM MgCl2, closed nucleosome | HHoB [2]; 1 mM MgCl2, open nucleosome | HHoB [2]; 100 mM Mg2+, closed hypernucleosome, 2.6 A | HHoG; [9] | HHoG; [10] | [6] | HHoF; [9] | HHoF; [10] | HHoB mut2 [7] | HHoB mut1 [8] | HHoB [3]; [9] | HHoB [3]; [10]

The exact form of at least one protein or probe is not confirmed. For part of these data: At least one verdict rests on a figure or table, not on a statement of the authors.
